In article PMC7819943, “Rice protein-binding microarrays: a tool to detect cis-acting elements near promoter regions in rice”:
This is one part of the list.

Sequences of proteins named here, by UniProt entry; tags and fusion partners are left off.
UniProt Q0JBA9, entry or part of it: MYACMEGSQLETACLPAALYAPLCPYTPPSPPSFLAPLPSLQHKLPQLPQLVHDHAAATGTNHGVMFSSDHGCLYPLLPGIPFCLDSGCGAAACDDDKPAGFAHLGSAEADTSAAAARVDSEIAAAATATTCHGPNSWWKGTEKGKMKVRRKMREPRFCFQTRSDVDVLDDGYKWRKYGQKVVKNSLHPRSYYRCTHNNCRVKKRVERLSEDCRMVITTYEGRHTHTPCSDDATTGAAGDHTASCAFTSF

molecular target: OsWRKY34 (Oryza sativa, UniProt Q0JBA9 1-250); assay: protein-binding microarray (RPBM); PBS, 2% BSA, 51.3 ng/ul salmon testes DNA, 50 uM zinc acetate, 200 nM TF, 25 C, 1 h; high values mean tight binding; conditions: protein: recombinant; tags: N-terminal polyhistidine and DsRed monomer fusion (pET32a); label: CyDye5-dUTP incorporated in the synthesized complementary strand; 3' TTTTT single-stranded linker to array surface; dsDNA, one strand shown
In short: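 Per-feature fluorescence intensity (arbitrary units), read on an Axon 4000B scanner, is the binding signal. Transcription factors carrying an N-terminal polyhistidine tag and DsRed fusion were expressed in E. coli BL21-CodonPlus and purified on Ni–NTA. A custom Agilent array, made double-stranded by primer extension with Cy5-dUTP and blocked with 2% BSA, was incubated with 200 nM protein in PBS, 2% BSA, salmon testes DNA and 50 µM zinc acetate at 25 °C for 1 h and then washed.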

| Sequence | binding signal |
| --- | --- |
| TTGTCCGTCAACTTGGCTTGATAGTGTTTATTCTAATATTCGGAGTCACCTAGTGCAG | 10700 fluorescence intensity (a.u.) |
| AATTTTCTCTACATACGCATCCGATGACGTTAGAACCATACGGAGTCACCTAGTGCAG | 8080 fluorescence intensity (a.u.) |
| CGAAAAGTCAACGGCGTTATAATGGAGGGAGTATTTTTTTCGGAGTCACCTAGTGCAG | 10900 fluorescence intensity (a.u.) |
| TTGGTCCACGTGCTTTTCTGTTGTTTTACATACTCTGGCCCGGAGTCACCTAGTGCAG | 9830 fluorescence intensity (a.u.) |
| AGTTCATCTACCTCTCTCCTTCACTTTACTCTCTCTCTCTCGGAGTCACCTAGTGCAG | 10500 fluorescence intensity (a.u.) |
| GTTTATTTCTCTTGATTTATTTAATTGGTTTAACTTCTTTCGGAGTCACCTAGTGCAG | 8030 fluorescence intensity (a.u.) |
| TCTTGTATTCCTTTTCACTAATGTAGATACACATTTATCCCGGAGTCACCTAGTGCAG | 10000 fluorescence intensity (a.u.) |
| GTGTATATAATCGACTAACTTCAGTAATCCTTCTGTTTCTCGGAGTCACCTAGTGCAG | 9420 fluorescence intensity (a.u.) |
| ATAAAATATTTTTTGTGTTGTTGTTTTTAATATAAATTATCGGAGTCACCTAGTGCAG | 9090 fluorescence intensity (a.u.) |
| AGTCTTTTTTCATCACATTAACCTATTATACACACATAACCGGAGTCACCTAGTGCAG | 9110 fluorescence intensity (a.u.) |
| CCTTCGCGCCGCCGCCTGCTACTCCCCTGCGTCGCGTCGCCGGAGTCACCTAGTGCAG | 8500 fluorescence intensity (a.u.) |
| TTGTCTCTTTGAGTTTTTGTCTATAACTTTTGATCATTCGCGGAGTCACCTAGTGCAG | 8430 fluorescence intensity (a.u.) |
| TCTTGTTTTAATTAGCTTATCTTGTGTTCTAGTATAAAACCGGAGTCACCTAGTGCAG | 10400 fluorescence intensity (a.u.) |
| CTAGTCGTTGTTTGTGCTTTACTCTTGTTTGTGTGATAGACGGAGTCACCTAGTGCAG | 9880 fluorescence intensity (a.u.) |
| TTCTTTCCTTTTTCTTTTGTTATCGGTTACCACAGTGTCTCGGAGTCACCTAGTGCAG | 9080 fluorescence intensity (a.u.) |
| GGGAGAGAGAGCCAACCGCGCACTACTTGTACTTCCTCATCGGAGTCACCTAGTGCAG | 10500 fluorescence intensity (a.u.) |
| TTGCTAGGGGAGTGATTTTTCTTGGTGATTTCATATGATCCGGAGTCACCTAGTGCAG | 8860 fluorescence intensity (a.u.) |
| CACATTTTCACGATGTCCCTCAGCTAATTACGTGTTTTTTCGGAGTCACCTAGTGCAG | 13700 fluorescence intensity (a.u.) |
| TTTGTCAGCTCATGTCCTTTGCAATGTTTGTAAGTTTGTTCGGAGTCACCTAGTGCAG | 8320 fluorescence intensity (a.u.) |
| TTGGGTATGTGGGGAAGTGGAATCCAAGGGTATGCTTTACCGGAGTCACCTAGTGCAG | 8930 fluorescence intensity (a.u.) |
| AGTTCATCTCCATGCATTCCAGTAAAGACCATTTTTAGGACGGAGTCACCTAGTGCAG | 8100 fluorescence intensity (a.u.) |

| Sequence | binding signal |
| --- | --- |
| ATTTCTTATTCTTGAGGCCACCTATCACGACTTTTATGTACGGAGTCACCTAGTGCAG | 10100 fluorescence intensity (a.u.) |
| CGTCCCTGCCGTCCTGGTATACGGTGCATGCACGTACCCGCGGAGTCACCTAGTGCAG | 8430 fluorescence intensity (a.u.) |
| ATTTGTATTTGTTTTTTGTTTGTTAGTATTAGGGTGCTTTCGGAGTCACCTAGTGCAG | 9720 fluorescence intensity (a.u.) |
| GGTCCCACGTGTTATATGCGCATGTATCTTGAAGTTTTTGCGGAGTCACCTAGTGCAG | 9190 fluorescence intensity (a.u.) |
| GGGTGAGCGGGGTGTGCTTGGTCGCGTCGCGTCGTGCCGTCGGAGTCACCTAGTGCAG | 9110 fluorescence intensity (a.u.) |
| CCTTTTGCTCACCTTTAAACAGCCTCATTTTTTTCGTTTACGGAGTCACCTAGTGCAG | 10800 fluorescence intensity (a.u.) |
| ACCACTCTACCACAACCATTACGCTATCCGCCACGAGCAACGGAGTCACCTAGTGCAG | 8620 fluorescence intensity (a.u.) |
| TCCCGGGATTCAAGCATTCCGCCCAGCAAACGCACCAAACCGGAGTCACCTAGTGCAG | 8670 fluorescence intensity (a.u.) |
| CATGGGCTGCAAGTGGGTTACGATCTCTTTTTTCCGGTGCCGGAGTCACCTAGTGCAG | 9020 fluorescence intensity (a.u.) |
| TCTCCGTCATCCTCAACCTCGCCGCCGGTCATAGTGACGACGGAGTCACCTAGTGCAG | 8640 fluorescence intensity (a.u.) |
| TGCGAATGTTCTCTTGTATTCATGCTTTTGACATGCTATTCGGAGTCACCTAGTGCAG | 8340 fluorescence intensity (a.u.) |
| ATAGTGTTAATCTGGATCTCATGTTTTTATGCCTGACATTCGGAGTCACCTAGTGCAG | 9050 fluorescence intensity (a.u.) |
| GAAGAGCATTAGGCTTGTATATGTTAGGTTTGATCTTTTTCGGAGTCACCTAGTGCAG | 8410 fluorescence intensity (a.u.) |
| TCTATCATAATCCCTGTACTTTTCTTGTTCCTCCCTTTTTCGGAGTCACCTAGTGCAG | 8340 fluorescence intensity (a.u.) |
| CTGGCGCTGGGGAGGGGATGGATGCGGCGGCCGGCAACTCCGGAGTCACCTAGTGCAG | 10800 fluorescence intensity (a.u.) |
| ATCTCCATCACAGCATCCGACGACGACGCCGCCGCGGCGGCGGAGTCACCTAGTGCAG | 8950 fluorescence intensity (a.u.) |
| AATTTGCATTCATACCCATATCCCTTTCTCACTTTCTCAGCGGAGTCACCTAGTGCAG | 8750 fluorescence intensity (a.u.) |
| AACCGTAGCCATTCATCTATGATTTCCATTTTGACATTATCGGAGTCACCTAGTGCAG | 8290 fluorescence intensity (a.u.) |
| CTGCACCTCTGCTTCAAATTTGGGTCACCGTTGTTTCTCCCGGAGTCACCTAGTGCAG | 9110 fluorescence intensity (a.u.) |
| CGCCACCACCACCACCACCCACCCCTTCCCTTCTTCCATCCGGAGTCACCTAGTGCAG | 9200 fluorescence intensity (a.u.) |
| CCGAGCACCCACCCGCCGCCGCCGCCGTCGCCGATTCATGCGGAGTCACCTAGTGCAG | 9080 fluorescence intensity (a.u.) |

3 entries drawn at random from the list so far:

| Sequence | binding signal |
| --- | --- |
| CGCCACCACCACCACCACCCACCCCTTCCCTTCTTCCATCCGGAGTCACCTAGTGCAG | 9200 fluorescence intensity (a.u.) |
| CGTCCCTGCCGTCCTGGTATACGGTGCATGCACGTACCCGCGGAGTCACCTAGTGCAG | 8430 fluorescence intensity (a.u.) |
| TCTCCGTCATCCTCAACCTCGCCGCCGGTCATAGTGACGACGGAGTCACCTAGTGCAG | 8640 fluorescence intensity (a.u.) |
